Measurements published in PubChem BioAssay AID2718 (Broad Institute, 2010).
The campaign covered roughly 320,000 compounds. About 480 (0.15%) were called active. The shares of active, inactive and inconclusive entries below differ from those in the screen. No stated cut-off is given here; in the data, active means inhibition above about 26% (passing the limit was not always enough); inconclusive means no clear call, values can overlap the other calls.

Chains of the proteins cited; added tags and fusions are not shown. Lines headed by an entry give the natural chain unless they say otherwise; changes in a name come on top.
UniProt O15379: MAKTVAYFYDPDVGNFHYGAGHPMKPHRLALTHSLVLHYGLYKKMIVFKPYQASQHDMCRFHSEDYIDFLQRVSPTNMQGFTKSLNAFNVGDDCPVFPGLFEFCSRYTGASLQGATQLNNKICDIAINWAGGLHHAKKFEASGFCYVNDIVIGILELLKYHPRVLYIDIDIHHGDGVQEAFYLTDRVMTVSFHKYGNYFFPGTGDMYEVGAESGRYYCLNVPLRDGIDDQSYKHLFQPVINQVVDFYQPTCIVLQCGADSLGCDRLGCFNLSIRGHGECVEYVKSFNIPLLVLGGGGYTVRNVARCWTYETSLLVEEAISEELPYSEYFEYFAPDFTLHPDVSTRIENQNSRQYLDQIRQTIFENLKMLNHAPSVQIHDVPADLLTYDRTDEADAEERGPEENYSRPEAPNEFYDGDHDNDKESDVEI

Biological target: Histone deacetylase 3 (Homo sapiens) (UniProt O15379)
Assay: HDAC3 deacetylase inhibitors, primary screen, biochemical, fluorescence, cell-free homogeneous (AID 2718)
Settings: recombinant HDAC3, fluorogenic peptide/trypsin coupled, at 8.3 µM, active compounds read high

Structure (SMILES) | inhibition
CCc1ccccc1NC(=O)C1CCN(S(=O)(=O)c2ccc3c(c2)N(C(C)=O)CCO3)CC1 | inconclusive: 16.7%
O=C(Nc1ccc(Cc2ccncc2)cc1)c1ccco1 | inconclusive: 17.6%
Cc1c(Cl)ccc2c1NC(=O)[C@]21N[C@@H](Cc2ccccc2)[C@H]2C(=O)N(c3ccc(F)cc3)C(=O)[C@H]21 | inconclusive: 22.3%
Cc1ccc(Cn2nnc3c(=O)[nH]c(C4CCN(S(=O)(=O)c5ccc(C)cc5)CC4)nc32)cc1 | inconclusive: 18.3%
Cc1ccc(S(=O)(=O)Nc2cccc(C(=O)NCCCn3ccnc3)c2)cc1F | inactive: -1.46%
O=C(Cc1c[nH]c2ccccc12)NCc1ccco1 | inactive: -8.96%
OC1CCCN(CC(O)c2ccccc2)C1 (centres undefined) | inconclusive: 15%
O=C(CNC(=O)c1ccc(Cl)cc1Cl)OCc1ccccc1 | inactive: -5.59%
O=C(Nc1cccc(C(F)(F)F)c1)c1cccnc1N1CCN(c2ccccc2)CC1 | inconclusive: 17%
CC(Sc1nnc2ccccn12)C(=O)Nc1ccc2c(c1)OCO2 (centres undefined) | inconclusive: 25.7%
CCC1(c2ccc(C)cc2)NC(=O)N(C(C)C(=O)Nc2ccc(N3CCOCC3)cc2)C1=O (centres undefined) | inactive: 6.16%
COc1ccc(CN(CC(=O)NCc2ccc(F)cc2)C(=O)c2csnn2)cc1 | inactive: -1.59%
CCOC(=O)c1c(N)sn(-c2ccccc2C)c1=S | inactive: 2.11%
COCCNC(=S)N(CCO)Cc1cc2cc3c(cc2[nH]c1=O)OCCO3 | active: 32.1%
COc1ccc(-c2nc(CS(=O)(=O)CC(=O)NCCc3ccc(C)cc3)c(C)o2)cc1 | inconclusive: 9.73%
C[C@]12C(=O)N(c3ccc(Cl)cc3)C(=O)N1[C@@H]1c3ccccc3OC[C@@H]1[C@H]2c1ccccc1 | inconclusive: 19%
Cc1cc(N/N=C/c2ccccc2)nc(N2CCOCC2)n1 | inconclusive: 17.7%
CC[N+](CC)(CC)CC(=O)Nc1ccc(SC(F)F)cc1 | inconclusive: 14.3%
Cc1ccc(S(=O)(=O)N(CC(=O)N2CCC(C)CC2)c2cccc(C)c2)cc1 | inactive: -2.26%
CCOc1ccc2nc3cc(NCc4ccc(OC)cc4)ccc3c(N)c2c1 | inconclusive: 21.1%
CC(C)C(=O)N1CCN(c2ccccc2NC(=O)COc2ccc(C3CCCCC3)cc2)CC1 | inconclusive: 18%
COc1cccc(/C=N/NC(=O)CNC(=O)c2cccnc2)c1O | inactive: -0.294%
Cc1[nH]cnc1CN1CCc2c(c3ccccc3n2C)C1=O | inactive: 1.79%
COc1ccc2c(c1)C(c1ccccc1)=NNC(c1ccco1)=N2 | inconclusive: 21.2%

Grouped by structure: those above containing an aryl thioether with sulfur outside any ring
Structure (SMILES) | inhibition
CC(Sc1nnc2ccccn12)C(=O)Nc1ccc2c(c1)OCO2 (centres undefined) | inconclusive: 25.7%
CC[N+](CC)(CC)CC(=O)Nc1ccc(SC(F)F)cc1 | inconclusive: 14.3%
